Results are given in words; binding and its absence hold for the method and conditions named. In cells and extracts the contact can be indirect. Some entries that bind do so weakly or less than the wild type.
Biological target: Flag-tagged wild-type mouse RIPK3 (mouse), Q9QZL0
Assay: co-IP; HEK293T co-transfected with mouse RIPK1 and Flag-tagged mouse RIPK3 (or mutants), lysed 36 h later (25 mM Hepes-NaOH pH 7.5, 150 mM NaCl, 1% Triton, 10% glycerol), anti-Flag magnetic beads overnight at 4 °C, blot with anti-RIPK1
Conditions: remark: other sources report otherwise

B1: mouse RIPK1 (receptor interacting protein kinase 1), Q60855 1-656 (protein)
chain: MQPDMSLDNIKMASSDLLEKTDLDSGGFGKVSLCYHRSHGFVILKKVYTGPNRAEYNEVLLEEGKMMHRLRHSRVVKLLGIIIEEGNYSLVMEYMEKGNLMHVLKTQIDVPLSLKGRIIVEAIEGMCYLHDKGVIHKDLKPENILVDRDFHIKIADLGVASFKTWSKLTKEKDNKQKEVSSTTKKNNGGTLYYMAPEHLNDINAKPTEKSDVYSFGIVLWAIFAKKEPYENVICTEQFVICIKSGNRPNVEEILEYCPREIISLMERCWQAIPEDRPTFLGIEEEFRPFYLSHFEEYVEEDVASLKKEYPDQSPVLQRMFSLQHDCVPLPPSRSNSEQPGSLHSSQGLQMGPVEESWFSSSPEYPQDENDRSVQAKLQEEASYHAFGIFAEKQTKPQPRQNEAYNREEERKRRVSHDPFAQQRARENIKSAGARGHSDPSTTSRGIAVQQLSWPATQTVWNNGLYNQHGFGTTGTGVWYPPNLSQMYSTYKTPVPETNIPGSTPTMPYFSGPVADDLIKYTIFNSSGIQIGNHNYMDVGLNSQPPNNTCKEESTSRHQAIFDNTTSLTDEHLNPIRENLGRQWKNCARKLGFTESQIDEIDHDYERDGLKEKVYQMLQKWLMREGTKGATVGKLAQALHQCCRIDLLNHLIRASQS
binding: binds

From publication PMC7955032
